The exact form of at least one protein or probe is not confirmed. Protein sequences can lack the tags named with them.
Target: T1, DVU2114 response regulator (Desulfovibrio vulgaris Hildenborough) (UniProt Q72A83)
T1 sequence (looked up, limits assumed): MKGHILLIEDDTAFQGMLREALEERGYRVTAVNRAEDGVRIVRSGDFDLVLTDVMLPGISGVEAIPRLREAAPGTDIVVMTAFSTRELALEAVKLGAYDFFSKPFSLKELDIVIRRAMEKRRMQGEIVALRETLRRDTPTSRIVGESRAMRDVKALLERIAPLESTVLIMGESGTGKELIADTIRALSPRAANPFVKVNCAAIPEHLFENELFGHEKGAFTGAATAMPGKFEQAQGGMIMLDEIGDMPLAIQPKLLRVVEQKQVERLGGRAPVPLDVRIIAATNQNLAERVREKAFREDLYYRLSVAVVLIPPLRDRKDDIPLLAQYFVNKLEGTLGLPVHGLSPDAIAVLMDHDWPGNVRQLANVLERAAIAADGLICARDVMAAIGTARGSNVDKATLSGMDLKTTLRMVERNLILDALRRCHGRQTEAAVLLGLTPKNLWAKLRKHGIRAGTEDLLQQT
Assay: EMSA
Settings: 10 mM Tris-HCl pH 7.5, 1 mM DTT, 50 mM KCl, 5 mM MgCl2, 25% glycerol, 1 ug/ml poly dI-dC, 50-100 fmol biotinylated DNA, 25-30 C, 20 min; recombinant protein; protein details: C-terminal V5-6xHis; label: 5'-biotin top strand

“ACCGGGCCACTCTACAAATCATAGATGCCCATCGC (double strand) [DVU2116 motif wt]”: binds.
